According to PubChem BioAssay AID2685 (National Center for Advancing Translational Sciences (NCATS), 2010):
This is one part of the list. These are further read-outs of the screen, such as a control signal, another cell line or another target. No call is given for them. Compounds called inactive in the main read-out are mostly missing here. The note in brackets gives the kind of curve behind each potency; many fits are weak.

Experiment: qHTS Assay for Lipid Storage Modulators in Drosophila S3 Cells;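 for cell number change: cells counted by Cell Tracker Red CMTPX staining in the red channel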
Conditions: BODIPY lipid droplet fluorescence, 18-24 h; for cell number change: measured here: cell count max response, cells fed with added oleic acid
Procedure, shortened: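 Drosophila S3 cells got compounds at several concentrations plus oleic acid (400 uM solution). Laser-scanning cytometry with 488 nm excitation read lipid droplets at 500-530 nm and cells at 575-640 nm. Percent activity was relative to 20 uM Triacsin C.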

[1] = measured here: cell number channel AC50, cells fed with added oleic acid
[2] = measured here: lipid fluorescence (Fed channel) AC50, cells fed with added oleic acid

Row | Compound | AC50 [1] | cell number change | AC50 [2]
1 | CC(C)OP(=O)(c1ccc(N(C)C)cc1)C(O)c1ccncc1 (centres undefined) | 1.84 µM [rising, partial curve] | – | –
2 | C=CCN1C(=O)NC(=O)/C(=C/C=C/c2ccccc2)C1=O | 23.1 µM [falling, single point] | -63% | 29.1 µM [falling, single point]
3 | Cc1ccc(C(O)P(=O)(Oc2ccccc2)Oc2ccccc2)cc1 (centres undefined) | – | 7.33% | 0.0231 µM [falling, full curve, poor fit]
4 | COC(=O)c1ccccc1OP1(=O)COc2ccccc2OC1 | – | -23.2% | 2.59 µM [falling, full curve]
5 | COc1ccc(Cn2c(O)c(/C=N/NC(=O)c3ccccc3)c(=O)[nH]c2=O)cc1 | – | 10.7% | 0.291 µM [rising, full curve]
6 | COc1ccccc1N1CCN(CCc2ccccc2)CC1 | – | -3.45% | 4.61 µM [rising, single point]
7 | c1ccc(NC2=NCCS2)cc1 | – | 13.7% | –
8 | Cc1cc(=O)oc2c(C)c(OCC(=O)N3CCC(C(=O)O)(c4ccccc4)CC3)ccc12 | – | 9.46% | 3.26 µM [falling, partial curve]
9 | COc1cccc(N2C(=O)CC(=O)NC2=O)c1 | – | -26.5% | 0.517 µM [falling, full curve]
10 | CCOC(=O)c1c(-n2c(C)cc(C=C3C(=O)NC(=S)NC3=O)c2C)sc2c1CCCC2 | – | – | 29.1 µM [falling, partial curve]
11 | CCOc1ccccc1-n1c(O)c(C=NCc2ccc3c(c2)OCO3)c(=O)[nH]c1=O | – | 4.1% | 4.61 µM [rising, single point]
12 | CCN1CCN(C(=O)Cc2coc3ccc4ccccc4c23)CC1 | 29.1 µM [rising, single point] | 30.6% | –
13 | COc1ccccc1-n1c(/C=C/c2ccccn2)nc2ccccc2c1=O | – | 19.6% | 5.8 µM [rising, partial curve]
14 | Cn1c(O)c(C=NCCOc2ccc(Cl)cc2)c(=O)n(C)c1=O | 25.9 µM [rising, single point] | 41.6% | –
15 | CCOC(=O)C1CCN(/C=C2/C(=O)NC(=S)N(c3cccc(OC)c3)C2=O)CC1 | 18.4 µM [falling, single point] | -36.4% | 29.1 µM [falling, single point]
16 | CCn1c(O)c(C=Nc2ccc(S(N)(=O)=O)cc2)c(=O)[nH]c1=S | 18.4 µM [rising, single point] | 63.5% | 29.1 µM [rising, single point]
17 | CN(C)C(CNC(=O)Cc1c(Cl)cccc1Cl)c1ccccc1 (centres undefined) | – | 0.137% | 0.231 µM [rising, full curve, poor fit]
18 | COc1ccc(OCC(=O)Nc2ccc(Cl)cc2C(=O)c2ccccc2)cc1 | – | 1.81% | 29.1 µM [falling, single point]

Already shown: an excerpt of the list.
Row | Compound | AC50 [1] | cell number change | AC50 [2]
2 | C=CCN1C(=O)NC(=O)/C(=C/C=C/c2ccccc2)C1=O | 23.1 µM [falling, single point] | -63% | 29.1 µM [falling, single point]
3 | Cc1ccc(C(O)P(=O)(Oc2ccccc2)Oc2ccccc2)cc1 (centres undefined) | – | 7.33% | 0.0231 µM [falling, full curve, poor fit]

Later entries

Row | Compound | AC50 [1] | cell number change | AC50 [2]
19 | COC(=O)C1=C(c2ccc(OCc3ccccc3)cc2)C[C@@H]2CC[C@H]1N2C(=O)NCc1cccc(OC)c1 | – | -6.14% | –
20 | CCOc1ccc(N2C(=O)/C(=C/c3ccco3)C(=O)NC2=S)cc1 | – | 8.39% | 29.1 µM [rising, single point]
21 | Cc1cccc(C2=NCC(=O)N(CC(=O)NCc3ccco3)c3sc4c(c32)CCCC4)c1 | 5.17 µM [falling, partial curve, poor fit] | – | 6.51 µM [falling, partial curve, poor fit]
22 | COC(=O)C1=C(c2ccc(C(C)=O)cc2)C[C@@H]2CC[C@H]1N2C(=O)NCc1ccco1 | – | 1.36% | –
23 | Cc1nn(Cc2ccccc2)c(C)c1C=C1C(=O)NC(=O)NC1=O | 20.6 µM [rising, single point] | 55.9% | –
24 | Cc1nn(Cc2ccccc2Cl)c(Cl)c1C(=O)O | – | 1.36% | –
25 | CCOC(=O)C1=C(N)OC2=C(C(=O)CCC2)C12C(=O)N(C)c1ccccc12 (centres undefined) | – | -28% | 29.1 µM [falling, partial curve, poor fit]
26 | COCCNC(=O)N1[C@H]2CC[C@@H]1C(C(=O)OC)=C(c1ccc(OC)c(OC)c1)C2 | – | -5.29% | 0.0326 µM [falling, partial curve, poor fit]
27 | O=S(=O)(c1ccc(O)cc1)c1ccc(O)cc1 | 29.1 µM [rising, single point] | 153% | 29.1 µM [rising, single point]
28 | CN1CCN(c2ccc([N+](=O)[O-])c(NCc3ccco3)c2)CC1 | 3.26 µM [falling, partial curve, poor fit] | -31.4% | 16.4 µM [rising, single point]
29 | Oc1ccccc1-[n+]1c(-c2ccccc2)cc(-c2ccccc2)cc1-c1ccccc1 | – | 10.3% | –
30 | C[C@]12CC[C@H]3[C@@H](CCC4=CC(=O)CC[C@@]43O)[C@@H]1CCC2=O | – | 1.39% | 29.1 µM [rising, single point]
31 | C[C@@]1([C@@H](NP(=O)(c2ccccc2)c2ccccc2)c2ccccc2)C[C@H]1CCO | 29.1 µM [falling, partial curve] | -32% | 32.6 µM [falling, partial curve, poor fit]
32 | C=CCn1c(O)c(C(C)=NCCCO)c(=O)[nH]c1=O | – | 6.46% | 20.6 µM [falling, partial curve]
33 | O=C1NC(=O)N(c2ccccc2)C(=O)/C1=C/c1ccc(Sc2ccccc2)o1 | 29.1 µM [falling, single point] | -43.2% | 16.4 µM [falling, single point]
34 | COc1cc2c(cc1OC)C(C(=O)N(C)C1CCCCC1)C1CCCCN1C2=O (centres undefined) | 9.2 µM [falling, partial curve] | -41.7% | –
35 | Fc1ccc(Cn2nnnc2C(c2ccc(F)cc2)N2CC=C(c3ccc(F)cc3)CC2)cc1 (centres undefined) | 6.51 µM [falling, single point] | 38.5% | 4.61 µM [rising, full curve, poor fit]
36 | COC(=O)C1=C(c2ccc(OC)c(OC)c2)C[C@@H]2CC[C@H]1N2C(=O)NC1CC1 | 16.4 µM [falling, partial curve] | -33.5% | 2.06 µM [falling, full curve, poor fit]
